From patent US20260234107A1, “T[…] METHODS OF TREATING MOOD DISORDERS” (priority 2022, published 2026)
Some of these results come from one statement about several compounds together.

Chains of the proteins cited; added tags and fusions are not shown.
UniProt P28223, whole entry: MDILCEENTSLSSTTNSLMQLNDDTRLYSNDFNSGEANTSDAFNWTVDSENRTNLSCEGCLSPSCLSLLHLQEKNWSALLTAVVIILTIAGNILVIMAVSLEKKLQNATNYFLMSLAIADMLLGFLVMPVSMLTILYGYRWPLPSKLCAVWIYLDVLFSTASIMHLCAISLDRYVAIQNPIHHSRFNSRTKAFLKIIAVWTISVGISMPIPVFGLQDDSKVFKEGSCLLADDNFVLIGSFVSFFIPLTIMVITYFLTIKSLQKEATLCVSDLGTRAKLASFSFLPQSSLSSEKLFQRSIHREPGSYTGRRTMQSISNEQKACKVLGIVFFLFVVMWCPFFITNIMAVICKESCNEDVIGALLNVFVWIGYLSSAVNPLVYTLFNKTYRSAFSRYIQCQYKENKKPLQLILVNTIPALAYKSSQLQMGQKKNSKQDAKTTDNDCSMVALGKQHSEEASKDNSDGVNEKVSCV

Biological target: 5-HT2A (Homo sapiens, UniProt P28223)
Test: FLIPR Ca2+ flux agonist assay at 5-HT2A
Format: cell-based
Set-up: host or cells: HEK293
Description: A solution of 250 mM probenecid in 1 mL FLIPR assay buffer was prepared fresh. This was combined with a fluorescent dye (Fluo-4 Direct™) to make a final assay concentration of 2.5 mM. […] The fluorescent dye was then added to the assay plate along with assay buffer to a final volume of 40 μL. The cell plate was incubated for 50 min at 37° C. and 5% CO2 and placed into the FLIPR Tetra along with the compound plate. 10 μL of references and compounds were then transferred from the compound plate into the cell plate and the fluorescent signal was read.

Row | Compound | concentration up to which no significant agonist effect at 5-HT2A
1 | CC(C)n1cc(CCN(C)C)c2c(O)cc(F)cc21 [Compound 10, 3-(2-(dimethylamino)ethyl)-6-fluoro-1-isopropyl-1H-indol-4-ol] | > 1,000 nM
2 | CNCCc1cn(C(C)C)c2cc(F)cc(O)c12 [Compound 12, 6-fluoro-1-isopropyl-3-(2-(methylamino)ethyl)-1H-indol-4-ol] | > 1,000 nM
